Measured values as given in PMC6123711, “Conformational signatures in β-arrestin2 reveal natural biased agonism at a G-protein-coupled receptor” (Communications Biology, 2018).
These are yes or no findings as the source states them, for the method shown. Binding seen in cells or lysates may run through a third protein. Some entries that bind do so weakly or less than the wild type.

Sequences of proteins named here, by UniProt entry; tags and fusion partners are left off. A change or cut given only in a name is not applied to a line headed by its entry. A line that says so, or that is headed by a name, gives the form on record, which may keep a tag or linker.
UniProt P49407: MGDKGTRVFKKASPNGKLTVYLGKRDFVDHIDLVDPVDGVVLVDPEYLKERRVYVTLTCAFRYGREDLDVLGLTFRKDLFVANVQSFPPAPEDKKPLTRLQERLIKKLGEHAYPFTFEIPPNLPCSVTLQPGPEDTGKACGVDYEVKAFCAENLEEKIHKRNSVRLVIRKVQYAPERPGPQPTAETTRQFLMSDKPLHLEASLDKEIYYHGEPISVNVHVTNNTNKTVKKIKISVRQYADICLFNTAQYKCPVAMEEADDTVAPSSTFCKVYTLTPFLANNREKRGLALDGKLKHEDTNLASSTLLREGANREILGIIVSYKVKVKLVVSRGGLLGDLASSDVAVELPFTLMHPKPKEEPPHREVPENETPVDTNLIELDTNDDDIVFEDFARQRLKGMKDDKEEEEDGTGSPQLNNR
UniProt P32121: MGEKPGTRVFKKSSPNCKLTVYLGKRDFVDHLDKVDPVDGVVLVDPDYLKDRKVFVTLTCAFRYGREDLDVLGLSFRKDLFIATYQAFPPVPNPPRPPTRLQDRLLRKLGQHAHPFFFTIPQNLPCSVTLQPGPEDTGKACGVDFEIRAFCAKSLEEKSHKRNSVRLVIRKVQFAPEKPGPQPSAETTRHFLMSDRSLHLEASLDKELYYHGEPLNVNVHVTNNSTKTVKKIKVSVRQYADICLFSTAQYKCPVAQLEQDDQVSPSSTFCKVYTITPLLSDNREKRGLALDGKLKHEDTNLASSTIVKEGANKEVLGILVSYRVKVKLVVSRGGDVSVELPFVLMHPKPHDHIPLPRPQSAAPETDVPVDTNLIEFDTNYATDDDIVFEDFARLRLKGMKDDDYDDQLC
β-arrestin2–FlasH1 (NanoBit construct) (P32121, form named): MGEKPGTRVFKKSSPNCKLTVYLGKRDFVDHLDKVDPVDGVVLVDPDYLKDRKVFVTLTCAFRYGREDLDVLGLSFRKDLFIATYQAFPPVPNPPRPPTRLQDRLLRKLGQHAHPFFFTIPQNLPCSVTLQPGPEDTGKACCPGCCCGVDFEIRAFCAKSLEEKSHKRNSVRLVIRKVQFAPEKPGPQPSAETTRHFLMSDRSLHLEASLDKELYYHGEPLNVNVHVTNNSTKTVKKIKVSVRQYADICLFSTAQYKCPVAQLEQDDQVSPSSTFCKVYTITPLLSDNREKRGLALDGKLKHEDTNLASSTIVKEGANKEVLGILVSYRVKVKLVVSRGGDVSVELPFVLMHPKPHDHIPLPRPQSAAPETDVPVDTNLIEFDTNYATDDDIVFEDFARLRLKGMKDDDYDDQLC
β-arrestin2–FlasH2 (NanoBit construct) (P32121, form named): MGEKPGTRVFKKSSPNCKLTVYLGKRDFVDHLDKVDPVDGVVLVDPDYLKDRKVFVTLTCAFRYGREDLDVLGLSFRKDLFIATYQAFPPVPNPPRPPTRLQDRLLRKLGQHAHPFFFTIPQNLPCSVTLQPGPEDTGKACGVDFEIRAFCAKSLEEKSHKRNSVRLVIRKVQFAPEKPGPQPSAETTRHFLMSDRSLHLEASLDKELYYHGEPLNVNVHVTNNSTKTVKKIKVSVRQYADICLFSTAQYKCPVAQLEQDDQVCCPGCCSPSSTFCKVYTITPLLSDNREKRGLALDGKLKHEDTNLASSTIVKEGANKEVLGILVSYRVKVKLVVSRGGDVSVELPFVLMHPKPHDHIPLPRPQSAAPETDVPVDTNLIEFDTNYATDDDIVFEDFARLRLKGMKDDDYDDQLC

What follows are substances tested against T1, human galanin receptor 2 (Galr2) containing the LgBiT at the C terminus (human) (UniProt O43603) (assay: split reporter; NanoBit complementation in live HEK293 cells transiently transfected with Galr2 and a β-arrestin construct, one with LgBit and one with SmBit; OPTIMEM, room temperature, furimazine; luminescence every minute after adding Galanin, Spexin or Fmoc-dA4-dQ14 (1 μM for the kinetic traces; dose–response at 5 min)).
T1 sequence: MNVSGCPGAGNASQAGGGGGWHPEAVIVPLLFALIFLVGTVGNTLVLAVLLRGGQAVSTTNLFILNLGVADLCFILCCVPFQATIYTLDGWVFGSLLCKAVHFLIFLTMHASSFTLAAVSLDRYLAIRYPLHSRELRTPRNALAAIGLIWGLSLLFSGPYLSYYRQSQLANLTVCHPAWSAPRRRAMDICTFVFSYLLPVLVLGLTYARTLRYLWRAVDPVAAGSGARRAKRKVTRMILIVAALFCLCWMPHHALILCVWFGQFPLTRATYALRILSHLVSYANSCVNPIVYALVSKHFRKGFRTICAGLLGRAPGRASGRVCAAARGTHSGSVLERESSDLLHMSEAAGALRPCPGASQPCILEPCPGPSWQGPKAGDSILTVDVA

binding, binds:
β-arrestin1 fused to a NanoBiT subunit (from UniProt P49407 1-418)
β-arrestin2 construct containing the SmBit (from UniProt P32121 1-409)
β-arrestin2–FlasH1 (NanoBit construct) (from UniProt P32121 1-140; P32121 141-409)
β-arrestin2–FlasH2 (NanoBit construct) (from UniProt P32121 1-263; P32121 264-409)
